In article PMC9334269:
No constants are given. Whether binding was seen depends on the method and setting. In cells and extracts the contact can be indirect. Some entries that bind do so weakly or less than the wild type.

Biological target: T1, endogenous STING (RAW264.7 cells) (mouse (endogenous in RAW264.7)) (UniProt Q3TBT3)
T1 sequence: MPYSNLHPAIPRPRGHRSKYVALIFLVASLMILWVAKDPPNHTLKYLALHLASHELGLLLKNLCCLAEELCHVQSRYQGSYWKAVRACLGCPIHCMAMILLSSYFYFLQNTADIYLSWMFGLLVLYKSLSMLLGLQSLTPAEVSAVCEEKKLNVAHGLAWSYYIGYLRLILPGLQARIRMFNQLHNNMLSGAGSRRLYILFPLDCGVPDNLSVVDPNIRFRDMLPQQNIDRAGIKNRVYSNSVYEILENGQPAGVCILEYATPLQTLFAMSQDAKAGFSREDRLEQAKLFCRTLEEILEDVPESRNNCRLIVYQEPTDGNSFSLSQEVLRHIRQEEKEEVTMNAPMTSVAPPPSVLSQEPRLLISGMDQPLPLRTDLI
Experiment: co-IP; IP of endogenous STING from RAW264.7 cells stimulated with CDA; immunoblot for NCOA4

- binding: binds
B1: endogenous NCOA4 (RAW264.7 cells) (protein, UniProt Q5U4H9 1-625)
chain: MNTSLEQSGCYSNRETLLRCSDARRELELAIGGVLRAEQQIKDNLREVKAQIHSCISRHLECLRSREVWLNEQVDLIYQLKEETLQQQAQQLYWLMGQFNCLIHQLEYTQNKDLANQVSVCLERLGSLALKPEDSTVLLFEADTSALRQTITTFGSLKTIQIPEHLMAHASSSSIGPFLEKRGYIQVPEQKSASSGTAVSLSEWLLVSKPAIGLQAPYVPSTNPQDWLIPKQTSENSQTSARACSFFSDAWGNLKGLENWLLNSHQQEIAGKPSSSKCNSHCSTSSFSPEAEKAEDVELLDQDELDLSDWLVTPQEPCELEKPVDGSWETSEKFKLLFQVFREPYNVSDWLVKPDSCTNCQGNQPRGVEIENLGNLKCLNDHLEAKKSVSVPGATISDGWLAQNHQDTWKVEEVCKANEPCTSFAECVCDDNCEKEAMYKWLLKKGGKDKNGMPMEPKSEPEKHRESLTLWLCPSRNELTEQAKAPKAMAPARIADSFHVIKNSSLSEWLMGPTCKGGPKDVPNTEERAGKEMLQSSMATSWCPFNTADWVLPGKKVGSLSQFPSGEDKWLLRKKAQEAFLNSPLQEERNFRPDCYGLPAVCDLFACMQLKVDKEKWLYRTPLQM
